Measurements published in patent US20240316008A1, “TREATMENT OF SYSTEMIC IMMUNE ACTIVATION SYNDROMES” (TRANQUIS THERAPEUTICS, INC., priority 2020, published 2024).
At least one compound was matched to its structure with a doubt left.

Legend:
IL-6 [1] = assay: LPS-stimulated IL-6 secretion from human PBMC (ELISA); type: cell-based; conditions: human PBMC from a first donor, 1 ng/ml LPS, 24h
Experimental: Briefly, 20,000 human PBMC were aliquoted into each well. LPS was added at 1 ng/ml and the cells incubated for 24h in the presence of LPS and TQS-168 or one of its metabolites. Readouts were human IL-6 ELISA and human TNFα ELISA. For assay, supernatants were diluted in culture medium. The supernatant dilution for the IL-6 ELISA was 1:8, and 1:2 for the human TNFα ELISA.

IL-6 [2] = assay: Spontaneous IL-6 release of PBMCs from an ALS patient (ELISA); type: cell-based, human; conditions: 1 μM, 24 hours, no LPS, versus medium only
Experimental: PBMCs from an ALS patient were used for this study. Whole blood samples were collected from the patient and processed for PBMC isolation with Ficoll gradient method. PBMC samples were stored in liquid nitrogen at […] for subsequent analysis of IL-6 production.
Frozen PBMC samples were thawed and rested at 37° C. […] Therefore PBMC stimulation by LPS was not required to evaluate the effects of TQS-168 and metabolite TQS-621 on IL-6 production. PBMC samples (5×10^5 cells per well) were incubated with medium only, TQS-168 (1 μM) or TQS-621 (1 μM). After 24 hours, supernatants were collected for quantification of IL-6 levels by ELISA.

CC(C)(C)c1ccc(-c2nc3cc(O)ccc3[nH]2)cc1 [TQS-621]
LPS-stimulated IL-6 secretion from PBMCs (IL-6 [1]): inhibition
spontaneous release of IL-6 (amount of IL-6 produced) (IL-6 [2]): reduction
